From PMC9112550, “Optimization of the antimicrobial peptide Bac7 by deep mutational scanning” (BMC Biology, 2022)

tested on: E. coli TOP10; test: Deep mutational scanning, site-saturation Bac7_1-23 library, intracellular self-screening with NGS; assay type: cell-based; conditions: site-saturation library, 156,779 variants; rank 1 = most active
Method: A focused strategy was pursued to generate diversity at positions 5, 18, 19, and 20 in the Bac7_1-23 peptide. […] Degeneration was introduced by using the QuikChange technique, amplifying the pBAD plasmid containing the Bac7_1-23 gene using a mixture of 20 oligonucleotides (Additional file 1: Table S1) at a final concentration of 0.3 μM and Phusion® High-Fidelity PCR Master Mix in HF buffer. The amplification was performed using 20 cycles of 98°C for 10 s, 60°C for 15 s, and 72°C for 10 s. The PCR product was treated with the enzyme Dpn1 to remove the template plasmid and subsequently purified. The purified product was used to transform 20 μl of CloneCatcher™ Gold DH5G Electrocompetent E. coli (Genlantis, Burlington, USA) cells using electroporation.
To assess the antimicrobial activity of multiple peptides in parallel when expressed intracellularly in E. coli TOP10, previously prepared aliquots containing E. coli plasmid libraries created by either random mutagenesis or site-saturation mutagenesis were used. For both approaches, three aliquots containing approximately 500 million cells each of E. coli TOP10 harboring peptide-encoding DNA sequences on the pBAD plasmid were thawed and added to three 1-l baffled shake flasks containing 100 ml of LB medium + 100 μg ml^−1 carbenicillin. The cultures were grown for roughly 7 h at 37°C.

In order of rising “Rank by antimicrobial activity” value:
1. RRIRYRPPRLPRPRPRPQALPRP [site-saturation library peptide ID 54096]  3
2. RRIRDRPPRLPRPRPRPIKDPRP [site-saturation library peptide ID 5521]  4
3. RRIRYRPPRLPRPRPRPCKSPRP [site-saturation library peptide ID 53741]  5
